Data reported in PMC7154662, “Structural Insight into IAPP‐Derived Amyloid Inhibitors and Their Mechanism of Action” (Angewandte Chemie (International Ed. in English), 2020).

System: Aβ40
Assay: MAS solid-state NMR of ISM-induced Aβ40 aggregates
Type: biochemical

Substance: KKK-ATQRLANFLVH-LLL-NF(N-Me)GA(N-Me)ILS-KKK [K3-L3-K3-GI]
- Asp-23/Lys-28 salt bridge in ISM-induced Aβ40 aggregates (2D 13C,15N TEDOR): a salt bridge is formed
- β-sheet core of ISM-induced Aβ40 aggregates (13C chemical shifts, TALOS+): same residues as in an Aβ amyloid fibril are immobilized and involved in the β‐sheet core
